# PMC10850099
# Sequences of proteins named here, by UniProt entry; tags and fusion partners are left off. A change or cut given only in a name is not applied to a line headed by its entry. A line that says so, or that is headed by a name, gives the form on record, which may keep a tag or linker.
# UniProt Q9UJQ4: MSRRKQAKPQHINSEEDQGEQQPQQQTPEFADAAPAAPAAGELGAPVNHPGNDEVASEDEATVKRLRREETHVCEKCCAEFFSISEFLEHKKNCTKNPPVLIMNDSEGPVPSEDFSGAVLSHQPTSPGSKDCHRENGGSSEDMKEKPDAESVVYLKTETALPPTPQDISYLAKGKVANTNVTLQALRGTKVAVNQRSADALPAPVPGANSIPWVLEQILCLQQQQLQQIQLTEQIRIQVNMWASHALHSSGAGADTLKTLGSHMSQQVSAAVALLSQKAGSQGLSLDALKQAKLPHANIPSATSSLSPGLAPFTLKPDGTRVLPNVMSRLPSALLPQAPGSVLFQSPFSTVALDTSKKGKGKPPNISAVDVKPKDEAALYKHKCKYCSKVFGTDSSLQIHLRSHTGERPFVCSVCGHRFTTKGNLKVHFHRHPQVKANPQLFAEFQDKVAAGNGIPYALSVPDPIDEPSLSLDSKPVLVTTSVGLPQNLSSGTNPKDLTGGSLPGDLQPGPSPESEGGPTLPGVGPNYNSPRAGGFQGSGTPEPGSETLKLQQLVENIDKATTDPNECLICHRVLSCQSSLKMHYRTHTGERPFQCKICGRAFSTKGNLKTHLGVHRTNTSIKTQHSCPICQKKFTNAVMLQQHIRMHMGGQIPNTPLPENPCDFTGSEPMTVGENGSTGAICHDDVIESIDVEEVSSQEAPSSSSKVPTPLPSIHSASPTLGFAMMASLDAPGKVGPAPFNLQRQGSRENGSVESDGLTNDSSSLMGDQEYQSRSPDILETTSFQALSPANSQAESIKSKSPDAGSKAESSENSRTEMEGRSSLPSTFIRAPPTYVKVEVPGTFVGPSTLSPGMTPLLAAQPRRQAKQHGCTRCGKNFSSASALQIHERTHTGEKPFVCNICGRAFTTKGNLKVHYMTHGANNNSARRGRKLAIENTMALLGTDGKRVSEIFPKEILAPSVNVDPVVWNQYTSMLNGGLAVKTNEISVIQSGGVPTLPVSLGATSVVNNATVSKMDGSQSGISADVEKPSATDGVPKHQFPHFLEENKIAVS
# ΔZFC4-SALL4 (Q9UJQ4, form named): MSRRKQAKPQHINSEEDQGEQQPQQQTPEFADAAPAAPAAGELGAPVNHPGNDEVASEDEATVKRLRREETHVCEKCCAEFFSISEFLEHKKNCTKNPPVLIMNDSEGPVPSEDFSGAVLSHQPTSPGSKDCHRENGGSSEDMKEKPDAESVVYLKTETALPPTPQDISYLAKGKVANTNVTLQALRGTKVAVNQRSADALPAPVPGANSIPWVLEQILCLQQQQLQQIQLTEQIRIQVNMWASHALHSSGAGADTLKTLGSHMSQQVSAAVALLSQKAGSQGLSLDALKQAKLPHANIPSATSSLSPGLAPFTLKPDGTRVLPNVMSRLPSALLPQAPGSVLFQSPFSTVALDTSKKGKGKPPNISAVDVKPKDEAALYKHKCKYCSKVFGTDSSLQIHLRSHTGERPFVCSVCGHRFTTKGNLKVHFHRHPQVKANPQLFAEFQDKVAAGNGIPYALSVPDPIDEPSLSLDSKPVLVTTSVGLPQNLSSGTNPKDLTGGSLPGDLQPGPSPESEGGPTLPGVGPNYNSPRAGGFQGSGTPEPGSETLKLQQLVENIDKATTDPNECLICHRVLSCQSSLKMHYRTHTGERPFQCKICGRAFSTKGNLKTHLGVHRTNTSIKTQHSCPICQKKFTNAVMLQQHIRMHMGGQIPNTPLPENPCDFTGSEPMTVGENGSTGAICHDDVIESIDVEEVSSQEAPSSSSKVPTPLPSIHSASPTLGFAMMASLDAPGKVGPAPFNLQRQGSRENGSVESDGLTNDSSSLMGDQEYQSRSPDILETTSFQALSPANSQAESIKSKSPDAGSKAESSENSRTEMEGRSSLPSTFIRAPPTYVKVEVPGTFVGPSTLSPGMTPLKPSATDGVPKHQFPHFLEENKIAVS
# ΔZFC2-SALL4 (Q9UJQ4, form named): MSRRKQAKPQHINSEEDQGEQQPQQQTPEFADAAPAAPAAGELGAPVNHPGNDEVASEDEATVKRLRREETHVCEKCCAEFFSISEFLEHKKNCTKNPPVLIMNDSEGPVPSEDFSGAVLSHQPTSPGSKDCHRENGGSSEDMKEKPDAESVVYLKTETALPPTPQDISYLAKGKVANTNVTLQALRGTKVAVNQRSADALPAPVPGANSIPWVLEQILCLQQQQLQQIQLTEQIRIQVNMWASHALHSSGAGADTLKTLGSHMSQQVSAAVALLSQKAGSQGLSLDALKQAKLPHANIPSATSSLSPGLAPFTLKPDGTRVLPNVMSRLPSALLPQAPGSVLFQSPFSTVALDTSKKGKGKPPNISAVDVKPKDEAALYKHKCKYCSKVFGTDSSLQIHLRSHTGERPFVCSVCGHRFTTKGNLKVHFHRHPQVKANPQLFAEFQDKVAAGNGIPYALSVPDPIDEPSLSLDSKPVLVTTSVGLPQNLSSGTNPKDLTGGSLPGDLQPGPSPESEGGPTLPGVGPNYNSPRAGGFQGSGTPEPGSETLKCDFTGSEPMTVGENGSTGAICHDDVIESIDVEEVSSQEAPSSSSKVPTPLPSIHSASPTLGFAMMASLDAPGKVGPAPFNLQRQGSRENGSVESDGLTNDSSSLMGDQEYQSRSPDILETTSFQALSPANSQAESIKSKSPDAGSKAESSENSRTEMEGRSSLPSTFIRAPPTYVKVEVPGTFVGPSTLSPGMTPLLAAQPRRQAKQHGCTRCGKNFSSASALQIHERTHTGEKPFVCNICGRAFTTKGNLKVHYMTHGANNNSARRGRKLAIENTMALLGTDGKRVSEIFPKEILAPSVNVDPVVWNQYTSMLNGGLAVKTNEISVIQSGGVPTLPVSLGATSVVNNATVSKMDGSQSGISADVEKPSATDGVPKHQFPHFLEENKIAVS
# ΔZFC1-SALL4 (Q9UJQ4, form named): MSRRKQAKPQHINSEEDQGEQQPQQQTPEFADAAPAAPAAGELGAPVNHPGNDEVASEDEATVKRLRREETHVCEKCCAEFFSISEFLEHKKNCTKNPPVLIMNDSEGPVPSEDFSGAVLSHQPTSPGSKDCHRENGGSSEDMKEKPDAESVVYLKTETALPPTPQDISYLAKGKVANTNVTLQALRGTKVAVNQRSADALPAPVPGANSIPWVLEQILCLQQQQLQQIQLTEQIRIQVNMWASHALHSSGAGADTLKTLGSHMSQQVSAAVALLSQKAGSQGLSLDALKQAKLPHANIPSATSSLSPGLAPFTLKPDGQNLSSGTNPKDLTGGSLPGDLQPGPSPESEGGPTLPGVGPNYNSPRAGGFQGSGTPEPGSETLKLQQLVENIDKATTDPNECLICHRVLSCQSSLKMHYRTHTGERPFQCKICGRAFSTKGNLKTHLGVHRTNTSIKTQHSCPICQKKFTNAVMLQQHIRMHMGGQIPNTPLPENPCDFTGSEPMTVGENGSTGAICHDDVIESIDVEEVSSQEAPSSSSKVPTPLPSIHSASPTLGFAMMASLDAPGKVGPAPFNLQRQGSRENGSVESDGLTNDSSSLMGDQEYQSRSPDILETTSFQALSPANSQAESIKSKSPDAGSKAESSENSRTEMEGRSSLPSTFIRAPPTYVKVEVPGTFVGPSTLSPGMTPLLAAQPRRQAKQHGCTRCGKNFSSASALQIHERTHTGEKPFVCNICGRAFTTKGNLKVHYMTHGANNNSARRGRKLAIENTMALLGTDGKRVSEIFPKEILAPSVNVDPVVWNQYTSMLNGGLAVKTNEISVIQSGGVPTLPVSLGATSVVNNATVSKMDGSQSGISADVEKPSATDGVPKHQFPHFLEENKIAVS
# UniProt P08151: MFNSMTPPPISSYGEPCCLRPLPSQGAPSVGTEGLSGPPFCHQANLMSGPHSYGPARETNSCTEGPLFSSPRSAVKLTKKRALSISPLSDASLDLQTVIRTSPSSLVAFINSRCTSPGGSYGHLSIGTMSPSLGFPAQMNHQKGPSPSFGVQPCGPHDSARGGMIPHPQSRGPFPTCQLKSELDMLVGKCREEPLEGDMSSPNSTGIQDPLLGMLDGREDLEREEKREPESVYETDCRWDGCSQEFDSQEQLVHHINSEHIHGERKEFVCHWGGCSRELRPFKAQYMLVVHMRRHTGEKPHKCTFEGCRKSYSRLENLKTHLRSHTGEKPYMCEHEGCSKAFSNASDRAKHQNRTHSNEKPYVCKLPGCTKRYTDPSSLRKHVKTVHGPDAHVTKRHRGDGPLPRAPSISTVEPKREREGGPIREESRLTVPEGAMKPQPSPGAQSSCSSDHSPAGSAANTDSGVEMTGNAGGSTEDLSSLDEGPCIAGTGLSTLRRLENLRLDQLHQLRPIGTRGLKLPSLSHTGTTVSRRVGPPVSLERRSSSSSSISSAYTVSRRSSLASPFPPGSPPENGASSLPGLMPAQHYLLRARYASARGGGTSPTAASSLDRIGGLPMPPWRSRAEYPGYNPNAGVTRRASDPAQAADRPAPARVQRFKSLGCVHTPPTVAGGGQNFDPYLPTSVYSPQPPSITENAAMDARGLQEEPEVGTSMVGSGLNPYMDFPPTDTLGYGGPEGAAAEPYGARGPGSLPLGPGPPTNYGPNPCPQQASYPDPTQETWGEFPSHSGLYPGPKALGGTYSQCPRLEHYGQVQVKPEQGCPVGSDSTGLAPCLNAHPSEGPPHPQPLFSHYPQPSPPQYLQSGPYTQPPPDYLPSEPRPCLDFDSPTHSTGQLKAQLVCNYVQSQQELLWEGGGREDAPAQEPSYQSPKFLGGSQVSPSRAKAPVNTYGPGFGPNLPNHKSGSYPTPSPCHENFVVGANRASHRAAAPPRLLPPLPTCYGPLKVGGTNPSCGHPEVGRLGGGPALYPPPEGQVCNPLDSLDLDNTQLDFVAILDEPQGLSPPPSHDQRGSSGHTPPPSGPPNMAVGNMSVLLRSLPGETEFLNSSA
# UniProt Q13547: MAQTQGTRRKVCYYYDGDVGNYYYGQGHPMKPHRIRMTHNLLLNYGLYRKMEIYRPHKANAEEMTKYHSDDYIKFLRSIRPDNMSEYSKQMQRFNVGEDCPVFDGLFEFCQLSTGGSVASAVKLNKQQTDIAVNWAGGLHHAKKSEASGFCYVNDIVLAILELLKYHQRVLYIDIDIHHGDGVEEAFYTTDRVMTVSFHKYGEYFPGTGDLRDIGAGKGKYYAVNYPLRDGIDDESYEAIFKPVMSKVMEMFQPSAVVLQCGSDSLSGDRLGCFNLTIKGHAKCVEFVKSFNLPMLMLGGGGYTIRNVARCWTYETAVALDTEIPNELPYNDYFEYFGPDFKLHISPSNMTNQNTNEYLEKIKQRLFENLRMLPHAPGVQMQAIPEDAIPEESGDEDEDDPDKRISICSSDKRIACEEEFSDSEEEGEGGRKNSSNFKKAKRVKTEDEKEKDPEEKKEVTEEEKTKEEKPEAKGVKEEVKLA
# Results are given in words; binding and its absence hold for the method and conditions named. Binding seen in cells or lysates may run through a third protein. Some results given as binding are weak or reduced against the parent protein; the word gives no strength. For part of these data: Tags and fused reporters may be left off the sequences shown.
# Key:
# HA-SALL4 [1] = biological target: HA-SALL4 (UniProt Q9UJQ4); test: co-IP; transiently transfected cells (HEK293Ts); RIPA lysate, at least 1 mg extract with primary antibody or control IgG overnight at 4 °C, protein G or A agarose 1 h at 4 °C, five washes, immunoblot
# HA-SALL4 [2] = biological target: HA-SALL4 (UniProt Q9UJQ4); test: co-IP; two sequential immunoprecipitations from HEK293Ts transfected with combinations of epitope tagged SALL4, HDAC1 and GLI1: anti-Flag agarose beads, two elutions with Flag-peptide, re-immunoprecipitation with HA-agarose beads, immunoblot
# Flag-REN WT = biological target: T1, Flag-REN WT (UniProt Q693B1); test: co-IP; transiently transfected cells (HEK293Ts); RIPA lysate, at least 1 mg extract with primary antibody or control IgG overnight at 4 °C, protein G or A agarose 1 h at 4 °C, five washes, immunoblot
# T1 sequence: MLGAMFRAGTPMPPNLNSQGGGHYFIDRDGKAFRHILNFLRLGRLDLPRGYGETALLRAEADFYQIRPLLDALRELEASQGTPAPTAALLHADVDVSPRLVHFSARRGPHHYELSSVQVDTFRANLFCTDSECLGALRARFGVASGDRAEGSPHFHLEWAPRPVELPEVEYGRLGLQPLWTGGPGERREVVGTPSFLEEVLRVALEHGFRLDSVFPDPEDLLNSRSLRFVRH
# Flag-GLI1 [3] = biological target: Flag-GLI1 (UniProt P08151); test: as above
# Flag-ΔBTB-REN = biological target: T2, Flag-ΔBTB-REN (UniProt Q693B1); test: as above
# T2 sequence: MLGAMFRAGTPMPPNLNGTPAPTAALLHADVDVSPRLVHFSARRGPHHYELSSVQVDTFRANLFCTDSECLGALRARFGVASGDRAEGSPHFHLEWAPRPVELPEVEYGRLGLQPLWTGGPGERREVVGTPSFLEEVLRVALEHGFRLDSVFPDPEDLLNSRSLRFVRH
# Flag-GLI1 [4] = biological target: Flag-GLI1 (UniProt P08151); test: co-IP; two sequential immunoprecipitations from HEK293Ts transfected with combinations of epitope tagged SALL4, HDAC1 and GLI1: anti-Flag agarose beads, two elutions with Flag-peptide, re-immunoprecipitation with HA-agarose beads, immunoblot
Substance,binding (Flag-REN WT),further results
exogenous HDAC1 (Flag-/HA-HDAC1) (from UniProt Q13547 1-482) (enzyme),,binding (HA-SALL4 [1]): binds; binding (HA-SALL4 [2]): binds
endogenous SALL4 (from UniProt Q9UJQ4 1-1053),binds,
ΔNuRD-SALL4 (from UniProt Q9UJQ4 13-1053) (domain or fragment),binds,
ΔZFC4-SALL4 (from UniProt Q9UJQ4 1-1053),binds,
ΔZFC2-SALL4 (from UniProt Q9UJQ4 1-1053),binds,
ΔZFC1-SALL4 (from UniProt Q9UJQ4 1-1053),binds,
HA-SALL4 (from UniProt Q9UJQ4 1-1053),binds,binding (Flag-GLI1 [3]): binds; binding (Flag-ΔBTB-REN): binds; binding (Flag-GLI1 [4]): binds
"SALL4 WT (VectorBuilder, N-terminal tagged 3xHA-6xHis) (from UniProt Q9UJQ4 1-1053)",binds,
